From paper PMC6449874

How the values were obtained:
Assay in all cases: pull-down; LUMIER pulldown: one protein fused to ProtA, the other to Rluc, each single-expressed in HEK293TM cells; lysis buffer 20 mM Tris pH 7.5, 250 mM NaCl, 1.1% Triton X-100, 10 mM EDTA, 10 mM DTT; sheep anti-rabbit IgG-coated Dynabeads, 1 h on ice; Rluc on the beads as percent of input; +: >= 2.5%, w: 1.5%-2.5%, -: < 1.5%; two grades in each cell
[1] = target: T1, AtGL3 (Arabidopsis thaliana) (UniProt Q9FN69)
T1 sequence: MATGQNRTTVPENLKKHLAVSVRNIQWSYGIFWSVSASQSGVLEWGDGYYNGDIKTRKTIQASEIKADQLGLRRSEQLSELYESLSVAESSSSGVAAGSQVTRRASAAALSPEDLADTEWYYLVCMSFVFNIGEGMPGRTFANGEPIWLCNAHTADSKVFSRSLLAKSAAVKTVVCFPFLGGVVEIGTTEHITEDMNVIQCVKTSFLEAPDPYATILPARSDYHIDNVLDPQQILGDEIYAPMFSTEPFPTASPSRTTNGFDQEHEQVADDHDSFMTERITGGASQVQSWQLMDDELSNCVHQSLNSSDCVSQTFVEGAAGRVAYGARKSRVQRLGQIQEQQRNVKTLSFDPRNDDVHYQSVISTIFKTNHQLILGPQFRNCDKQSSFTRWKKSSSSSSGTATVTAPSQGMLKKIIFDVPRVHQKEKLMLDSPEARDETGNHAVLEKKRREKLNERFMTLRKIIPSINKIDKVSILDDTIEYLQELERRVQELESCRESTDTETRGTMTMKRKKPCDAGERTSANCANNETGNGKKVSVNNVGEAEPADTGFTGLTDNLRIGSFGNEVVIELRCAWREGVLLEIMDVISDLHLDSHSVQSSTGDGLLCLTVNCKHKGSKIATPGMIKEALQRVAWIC

[2] = target: T2, AtEGL3 (Arabidopsis thaliana) (UniProt Q9CAD0)
T2 sequence: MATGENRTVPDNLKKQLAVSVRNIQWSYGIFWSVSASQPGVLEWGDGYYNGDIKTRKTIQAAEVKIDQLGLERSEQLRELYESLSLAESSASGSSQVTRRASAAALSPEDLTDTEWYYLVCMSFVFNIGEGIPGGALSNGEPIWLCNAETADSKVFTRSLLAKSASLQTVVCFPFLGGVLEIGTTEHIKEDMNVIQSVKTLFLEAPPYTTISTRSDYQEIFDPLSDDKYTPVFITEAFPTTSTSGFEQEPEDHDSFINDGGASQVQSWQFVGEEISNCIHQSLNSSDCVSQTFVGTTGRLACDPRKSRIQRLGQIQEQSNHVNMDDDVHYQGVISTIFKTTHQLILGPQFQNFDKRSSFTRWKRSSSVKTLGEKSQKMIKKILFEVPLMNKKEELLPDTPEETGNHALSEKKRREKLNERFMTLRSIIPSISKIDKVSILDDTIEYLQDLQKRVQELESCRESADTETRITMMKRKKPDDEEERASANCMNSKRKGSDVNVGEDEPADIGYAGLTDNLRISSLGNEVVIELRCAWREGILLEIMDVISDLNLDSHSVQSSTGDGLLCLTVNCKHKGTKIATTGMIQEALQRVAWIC

[3] = target: T3, … TESTA GLABRA1 (TTG1), Arabidopsis thaliana (Arabidopsis thaliana) (UniProt Q9XGN1)
T3 sequence: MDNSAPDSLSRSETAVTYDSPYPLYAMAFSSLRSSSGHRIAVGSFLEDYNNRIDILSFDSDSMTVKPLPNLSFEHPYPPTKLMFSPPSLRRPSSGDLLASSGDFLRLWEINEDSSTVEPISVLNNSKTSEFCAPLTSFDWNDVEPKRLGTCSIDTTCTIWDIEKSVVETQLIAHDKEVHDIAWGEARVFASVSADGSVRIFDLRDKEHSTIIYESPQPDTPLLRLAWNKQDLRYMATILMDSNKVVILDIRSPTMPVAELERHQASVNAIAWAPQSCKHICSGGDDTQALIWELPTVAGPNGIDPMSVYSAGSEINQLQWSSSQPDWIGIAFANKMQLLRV

[4] = target: T4, AtTT8 (Arabidopsis thaliana) (UniProt Q9FT81)
T4 sequence: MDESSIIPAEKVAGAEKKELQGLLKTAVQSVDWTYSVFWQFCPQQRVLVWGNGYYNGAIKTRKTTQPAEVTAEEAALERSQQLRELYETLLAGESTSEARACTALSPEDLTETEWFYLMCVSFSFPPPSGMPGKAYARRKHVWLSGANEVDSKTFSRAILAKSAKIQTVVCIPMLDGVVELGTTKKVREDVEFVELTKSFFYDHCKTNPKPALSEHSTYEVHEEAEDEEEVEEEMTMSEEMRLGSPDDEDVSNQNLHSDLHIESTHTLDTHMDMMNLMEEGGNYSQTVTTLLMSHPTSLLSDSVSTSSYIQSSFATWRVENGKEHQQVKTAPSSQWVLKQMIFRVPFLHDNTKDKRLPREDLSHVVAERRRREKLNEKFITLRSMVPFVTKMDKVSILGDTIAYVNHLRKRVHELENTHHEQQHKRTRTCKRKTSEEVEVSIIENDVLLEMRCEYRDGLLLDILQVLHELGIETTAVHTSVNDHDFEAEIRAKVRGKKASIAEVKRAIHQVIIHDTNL

[5] = target: T5, AtMYC1 (Arabidopsis thaliana) (UniProt Q8W2F1)
T5 sequence: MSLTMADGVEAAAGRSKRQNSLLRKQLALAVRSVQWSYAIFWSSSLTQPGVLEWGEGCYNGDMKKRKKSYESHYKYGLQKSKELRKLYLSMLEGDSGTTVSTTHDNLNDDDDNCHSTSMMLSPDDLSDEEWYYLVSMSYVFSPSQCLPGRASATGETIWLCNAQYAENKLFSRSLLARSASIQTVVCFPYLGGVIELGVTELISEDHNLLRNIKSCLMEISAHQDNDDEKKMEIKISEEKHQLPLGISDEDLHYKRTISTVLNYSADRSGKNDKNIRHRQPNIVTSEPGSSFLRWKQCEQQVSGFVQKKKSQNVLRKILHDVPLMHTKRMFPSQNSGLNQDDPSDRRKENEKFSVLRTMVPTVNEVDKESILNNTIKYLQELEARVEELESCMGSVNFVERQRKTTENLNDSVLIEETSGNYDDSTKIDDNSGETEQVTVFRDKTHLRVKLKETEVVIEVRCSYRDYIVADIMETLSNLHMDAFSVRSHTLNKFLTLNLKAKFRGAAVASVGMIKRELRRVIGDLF

| Substance | binding [1] | binding [2] | binding [3] | binding [4] | binding [5] |
| --- | --- | --- | --- | --- | --- |
| GhMYB25 (Gossypium hirsutum) | no binding | no binding | no binding | no binding | no binding |
| AaWER (Arabis alpina) | binds | binds | no binding | binds | binds |
| AaMYB23 (Arabis alpina) | binds | binds | no binding | binds | binds |
| AaPAPL (Arabis alpina) | binds | binds | no binding | binds | binds |
| ZmPL (Zea mays) | binds | binds | binds weakly | binds | binds |
| ZmP1 (Zea mays) | no binding | no binding | no binding | no binding | no binding |
| GhMYB3 (Gossypium hirsutum) | binds | binds | no binding | binds | binds |
| AaGL1 (Arabis alpina) | binds | binds | no binding | binds | binds |
| GhMYB2 (Gossypium hirsutum) | binds | binds | no binding | binds | binds |
| GhRLC1 (Gossypium hirsutum) | binds | binds | no binding | binds | binds |
| PhAN2 (Petunia hybrida) | binds | binds | no binding | binds | binds |

Results are given in words; binding and its absence hold for the method and conditions named. Binding seen in cells or lysates may run through a third protein. Binding can be weak; no strength is given. For some of these results: Tags and fused reporters may be left off the sequences shown.
